Taken from: PubChem BioAssay AID1259405 (NCATS, 2018)
The whole screen tested about 50,000 reagents; below is a part drawn at random. Over the whole deposit, about 4,000 (8%) were called active. 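Mouse siRNA library applied to hamster cells; one well for each siRNA.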 Reagents against one gene are numbered here.

- Test: 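Knock-downs that lift recombinant protein yield in hamster ovary cells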 (primary screen)
- Cell system: Chinese hamster CHO-K1 ovary cells with stable secreted eGFP expression
- Knock-down reagent: single siRNA against mouse genes, 0.8 pmol siRNA per well (2 µl of 400 nM stock)
- Timing: 3 days
- Detection: 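Per-well intracellular GFP measured by laser scanning cytometry, plus viability from ATP luminescence, each relative to plate median of non-targeting control wells, in %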
- Reading the numbers: GFP, % of control: higher = more GFP per well, higher productivity; viability (ATP), % of control: higher = more viable cells (more ATP)
- Rule for the call: 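a knock-down is called active if GFP reaches 120% or more of non-targeting control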

{"Target gene": "Or10q3", "siRNA no.": 1, "GFP, % of control": 130, "viability (ATP), % of control": 60.3, "outcome": "active"}
{"Target gene": "Or10q3", "siRNA no.": 2, "GFP, % of control": 103, "viability (ATP), % of control": 96, "outcome": "inactive"}
{"Target gene": "Or10q3", "siRNA no.": 3, "GFP, % of control": 73.4, "viability (ATP), % of control": 73.5, "outcome": "inactive"}
{"Target gene": "Kcna7", "siRNA no.": 1, "GFP, % of control": 78.4, "viability (ATP), % of control": 43.8, "outcome": "inactive"}
{"Target gene": "Kcna7", "siRNA no.": 2, "GFP, % of control": 13, "viability (ATP), % of control": 6.6, "outcome": "inactive"}
{"Target gene": "Kcna7", "siRNA no.": 3, "GFP, % of control": 84.8, "viability (ATP), % of control": 79.3, "outcome": "inactive"}
{"Target gene": "Slc22a21", "siRNA no.": 1, "GFP, % of control": 45.6, "viability (ATP), % of control": 53.4, "outcome": "inactive"}
{"Target gene": "Slc22a21", "siRNA no.": 2, "GFP, % of control": 57.6, "viability (ATP), % of control": 70.2, "outcome": "inactive"}
{"Target gene": "Slc22a21", "siRNA no.": 3, "GFP, % of control": 87.7, "viability (ATP), % of control": 110, "outcome": "inactive"}
{"Target gene": "Mpdu1", "siRNA no.": 1, "GFP, % of control": 111, "viability (ATP), % of control": 76, "outcome": "inactive"}
{"Target gene": "Mpdu1", "siRNA no.": 2, "GFP, % of control": 72.6, "viability (ATP), % of control": 87.8, "outcome": "inactive"}
{"Target gene": "Mpdu1", "siRNA no.": 3, "GFP, % of control": 43.9, "viability (ATP), % of control": 42.3, "outcome": "inactive"}
{"Target gene": "Arid3a", "siRNA no.": 1, "GFP, % of control": 66.7, "viability (ATP), % of control": 79.5, "outcome": "inactive"}
{"Target gene": "Arid3a", "siRNA no.": 2, "GFP, % of control": 111, "viability (ATP), % of control": 91.8, "outcome": "inactive"}

A stretch from the list above:
{"Target gene": "Slc22a21", "siRNA no.": 2, "GFP, % of control": 57.6, "viability (ATP), % of control": 70.2, "outcome": "inactive"}
{"Target gene": "Slc22a21", "siRNA no.": 3, "GFP, % of control": 87.7, "viability (ATP), % of control": 110, "outcome": "inactive"}
{"Target gene": "Mpdu1", "siRNA no.": 1, "GFP, % of control": 111, "viability (ATP), % of control": 76, "outcome": "inactive"}
{"Target gene": "Mpdu1", "siRNA no.": 2, "GFP, % of control": 72.6, "viability (ATP), % of control": 87.8, "outcome": "inactive"}

Continued.
{"Target gene": "Ptpre", "siRNA no.": 1, "GFP, % of control": 71.6, "viability (ATP), % of control": 53.1, "outcome": "inactive"}
{"Target gene": "Ptpre", "siRNA no.": 2, "GFP, % of control": 88.6, "viability (ATP), % of control": 79.7, "outcome": "inactive"}
{"Target gene": "Ptpre", "siRNA no.": 3, "GFP, % of control": 113, "viability (ATP), % of control": 76.6, "outcome": "inactive"}
{"Target gene": "Pgm1", "siRNA no.": 1, "GFP, % of control": 66.9, "viability (ATP), % of control": 81, "outcome": "inactive"}
{"Target gene": "Pgm1", "siRNA no.": 2, "GFP, % of control": 106, "viability (ATP), % of control": 77.9, "outcome": "inactive"}
{"Target gene": "Pgm1", "siRNA no.": 3, "GFP, % of control": 68.3, "viability (ATP), % of control": 71.9, "outcome": "inactive"}
{"Target gene": "E2f4", "siRNA no.": 1, "GFP, % of control": 78.1, "viability (ATP), % of control": 83, "outcome": "inactive"}
{"Target gene": "E2f4", "siRNA no.": 2, "GFP, % of control": 76.8, "viability (ATP), % of control": 77, "outcome": "inactive"}
{"Target gene": "Narf", "siRNA no.": 1, "GFP, % of control": 101, "viability (ATP), % of control": 64.6, "outcome": "inactive"}
{"Target gene": "Narf", "siRNA no.": 2, "GFP, % of control": 54.2, "viability (ATP), % of control": 59.2, "outcome": "inactive"}
{"Target gene": "Narf", "siRNA no.": 3, "GFP, % of control": 75.2, "viability (ATP), % of control": 95.7, "outcome": "inactive"}
{"Target gene": "Fbxo21", "siRNA no.": 1, "GFP, % of control": 82.7, "viability (ATP), % of control": 77.2, "outcome": "inactive"}
{"Target gene": "Fbxo21", "siRNA no.": 2, "GFP, % of control": 52.4, "viability (ATP), % of control": 53.3, "outcome": "inactive"}
{"Target gene": "Fbxo21", "siRNA no.": 3, "GFP, % of control": 52, "viability (ATP), % of control": 58.3, "outcome": "inactive"}
{"Target gene": "Rgmb", "siRNA no.": 1, "GFP, % of control": 59.5, "viability (ATP), % of control": 78.4, "outcome": "inactive"}
{"Target gene": "Rgmb", "siRNA no.": 2, "GFP, % of control": 32, "viability (ATP), % of control": 25.7, "outcome": "inactive"}
{"Target gene": "Rgmb", "siRNA no.": 3, "GFP, % of control": 65.1, "viability (ATP), % of control": 61.7, "outcome": "inactive"}
{"Target gene": "Ik", "siRNA no.": 1, "GFP, % of control": 112, "viability (ATP), % of control": 45.3, "outcome": "inactive"}
{"Target gene": "Ik", "siRNA no.": 2, "GFP, % of control": 72.7, "viability (ATP), % of control": 28.9, "outcome": "inactive"}
{"Target gene": "Ik", "siRNA no.": 3, "GFP, % of control": 80.5, "viability (ATP), % of control": 56.6, "outcome": "inactive"}
{"Target gene": "Afg1l", "siRNA no.": 1, "GFP, % of control": 103, "viability (ATP), % of control": 69.8, "outcome": "inactive"}
{"Target gene": "Afg1l", "siRNA no.": 2, "GFP, % of control": 93.8, "viability (ATP), % of control": 67.9, "outcome": "inactive"}
{"Target gene": "Afg1l", "siRNA no.": 3, "GFP, % of control": 54.3, "viability (ATP), % of control": 73.6, "outcome": "inactive"}
{"Target gene": "C4a", "siRNA no.": 1, "GFP, % of control": 56.2, "viability (ATP), % of control": 56.3, "outcome": "inactive"}
{"Target gene": "C4a", "siRNA no.": 2, "GFP, % of control": 52.1, "viability (ATP), % of control": 25.6, "outcome": "inactive"}
{"Target gene": "C4a", "siRNA no.": 3, "GFP, % of control": 83.5, "viability (ATP), % of control": 77.1, "outcome": "inactive"}
